Laboratory results taken from US20030055052A1 (priority 2000, published 2003).
The same purity stands for every peptide and may come from a single statement.

Legend:
[1] = general procedure: Fmoc solid-phase peptide synthesis; H-Pro-2-chlorotritylchloride-resin; AMCA-resin; DIC/HOBt; HATU/HOAT/DIEA for first residue on AMCA-resin
[2] = general procedure: Fmoc solid-phase peptide synthesis; AMCA-resin; DIC/HOBt; HATU/HOAT/DIEA for first residue on AMCA-resin; settings: whole synthesis, scale of the general procedure 200 mg resin, 0.158
[3] = whole synthesis, scale of the general procedure 200 mg resin, 0.158

Substance	final HPLC purity [1, 3]	other results
Benzyloxycarbonyl-Thz-Ala-Gly-Pro-OH	HPLC>95%	–
Benzyloxycarbonyl-Thz-Ala-Gly-Pro-Doxorubicin	–	final HPLC purity ([1]; conjugation step): HPLC>95%
Pyridin-3-ylmethoxycarbonyl-Thz-Ala-Gly-Pro-OH	HPLC>95%	–
Z-Thz-Ala-Gly-Pro-AMCA-OH	–	final HPLC purity [2]: HPLC>95%
